Paper doi:10.1101/2025.10.29.685433

The chains behind the UniProt entries cited, without tags or fusion partners. Where a name states a change or a piece, a line headed by the entry shows the natural chain unless it says otherwise.
UniProt P04449: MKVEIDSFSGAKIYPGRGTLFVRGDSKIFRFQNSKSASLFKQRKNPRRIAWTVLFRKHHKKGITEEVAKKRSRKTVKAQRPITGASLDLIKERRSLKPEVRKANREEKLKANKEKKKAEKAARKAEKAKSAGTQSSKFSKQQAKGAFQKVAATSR

Key:
[1] = biological target: eL24 (S. cerevisiae (endogenous in BY4741-derived yeast)) (UniProt P04449); test: cryo-EM structure
[2] = biological target: eL22 (S. cerevisiae (endogenous in BY4741-derived yeast)); test: cryo-EM structure

- binding [1]: binds
- binding [2]: binds
B1: Reh1 (protein, UniProt Q06709 1-432)
chain: MSSTFFTCNCCVIQFKTSDLQRYHMKTEWHRYNLKRRIANLPPIGAEQFAEKLQISEKEQAENQVDEFGFPVLKPVMNQSNALPQKQKKPIKSKRGRKVGTNLLKRKDRDIAKEKQNRSVSPSGSISSQLSNLTVGTENTNTDYGEDTVSEYGFTSDSNYEYATSDEELDIADKPSDKENEKITITECIYCGKDNKEVERNVKHMFSEHGLFIPERSYLIDLNGLLEFLIKMIVIDHNCLCCNFHGSGLESIRAHMASKRHCRLPYETKEERQLFAPFYDFTYDDHSISKNLQNDRAITSKLSSVYGAKNDEEDGEVDITLVSSENDINANYTTVSIDESGLELTLPTGARLGHRAGQRYYRQNLPSQPNPNESRRTITAADRRMVSGVTEKQYKKGMKKMQQLEKNAINTQIRREIKRVNFQTHYRDELLQ

Results are given in words; binding and its absence hold for the method and conditions named. Binding can be weak; no strength is given.
